Assay results as given in publication PMC7039436.
These are yes or no findings as the source states them, for the method shown. Some binding calls cover weakened binding; strength is not graded here. Where a sequence is shown, tags or fusion partners need not be part of it.

T1: FANCC (MBP-FANCC) (UniProt Q00597)
T1 sequence: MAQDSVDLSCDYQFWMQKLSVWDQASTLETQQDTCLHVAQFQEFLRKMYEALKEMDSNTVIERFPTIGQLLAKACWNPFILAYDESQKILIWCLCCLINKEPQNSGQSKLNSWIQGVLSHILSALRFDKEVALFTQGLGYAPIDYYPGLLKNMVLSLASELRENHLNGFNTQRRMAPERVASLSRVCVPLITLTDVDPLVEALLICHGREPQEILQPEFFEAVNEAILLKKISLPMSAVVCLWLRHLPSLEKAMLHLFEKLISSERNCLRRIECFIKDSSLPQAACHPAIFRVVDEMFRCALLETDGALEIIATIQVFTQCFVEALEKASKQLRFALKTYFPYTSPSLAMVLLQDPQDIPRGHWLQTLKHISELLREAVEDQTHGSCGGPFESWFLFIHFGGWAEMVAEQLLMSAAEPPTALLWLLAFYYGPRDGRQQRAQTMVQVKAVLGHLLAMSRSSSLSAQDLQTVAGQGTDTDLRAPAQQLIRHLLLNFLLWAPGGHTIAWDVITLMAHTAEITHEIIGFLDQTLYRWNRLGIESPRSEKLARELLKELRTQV

B1: FANCE (protein, UniProt Q9HB96 1-536)
chain: MATPDAGLPGAEGVEPAPWAQLEAPARLLLQALQAGPEGARRGLGVLRALGSRGWEPFDWGRLLEALCREEPVVQGPDGRLELKPLLLRLPRICQRNLMSLLMAVRPSLPESGLLSVLQIAQQDLAPDPDAWLRALGELLRRDLGVGTSMEGASPLSERCQRQLQSLCRGLGLGGRRLKSPQAPDPEEEENRDSQQPGKRRKDSEEEAASPEGKRVPKRLRCWEEEEDHEKERPEHKSLESLADGGSASPIKDQPVMAVKTGEDGSNLDDAKGLAESLELPKAIQDQLPRLQQLLKTLEEGLEGLEDAPPVELQLLHECSPSQMDLLCAQLQLPQLSDLGLLRLCTWLLALSPDLSLSNATVLTRSLFLGRILSLTSSASRLLTTALTSFCAKYTYPVCSALLDPVLQAPGTGPAQTELLCCLVKMESLEPDAQVLMLGQILELPWKEETFLVLQSLLERQVEMTPEKFSVLMEKLCKKGLAATTSMAYAKLMLTVMTKYQANITETQRLGLAMALEPNTTFLRKSLKAALKHLGP
B2: FANCF (protein, UniProt Q9NPI8 1-374)
chain: MESLLQHLDRFSELLAVSSTTYVSTWDPATVRRALQWARYLRHIHRRFGRHGPIRTALERRLHNQWRQEGGFGRGPVPGLANFQALGHCDVLLSLRLLENRALGDAARYHLVQQLFPGPGVRDADEETLQESLARLARRRSAVHMLRFNGYRENPNLQEDSLMKTQAELLLERLQEVGKAEAERPARFLSSLWERLPQNNFLKVIAVALLQPPLSRRPQEELEPGIHKSPGEGSQVLVHWLLGNSEVFAAFCRALPAGLLTLVTSRHPALSPVYLGLLTDWGQRLHYDLQKGIWVGTESQDVPWEELHNRFQSLCQAPPPLKDKVLTALETCKAQDGDFEVPGLSIWTDLLLALRSGAFRKRQVLGLSAGLSSV

Molecular target: T1, FANCC (MBP-FANCC)
Test: co-purification; complexes purified as previously described [11]; the procedure is not told here; Coomassie gel of the purified complexes

Binder	binding
B1	binds
B2	binds
